PubChem BioAssay AID1159579, Peter MacCallum Cancer Centre – 2015

Test: 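Find genes whose silencing alters migration of lymphatic endothelial cells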 (follow-up of hits)
System: human dermal lymphatic endothelial cells
Reagents: single siRNA against human genes, 25 nM
Measured: 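High content images of wound closure area and cell nuclei counts, each the average of two wells, expressed against mock transfection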
Scale: migration relative to mock: higher = more migration into the scratch; mean nuclei count: higher = more cells remaining
Rule for the call: 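Called active when the migration ratio is 0.6 or lower (impaired) or 1.3 or higher (accelerated), but inactive whenever the mean nuclei count falls under 3300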
Meaning of the calls: active = migration changed (impaired or accelerated); inactive = no migration change, or too few cells
Here is one part, drawn at random, of about 2,000 reagents tested. Of all reagents, 549 (27%) got an active call. 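Some migration ratios are negative; siRNAs with too few cells are inactive whatever their migration ratio.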 Reagents against one gene are numbered here. Further read-outs or replicates are left out here. The record does not give: the time to read-out.

LPL #1: migration relative to mock = 0.75; mean nuclei count = 5134; activity call = inactive
LPL #2: migration relative to mock = 0.51; mean nuclei count = 4884; activity call = active
LPL #3: migration relative to mock = 0.42; mean nuclei count = 5216; activity call = active
LPL #4: migration relative to mock = 0.66; mean nuclei count = 5949; activity call = inactive
LYPLA2 #1: migration relative to mock = 0.88; mean nuclei count = 6487; activity call = inactive
LYPLA2 #2: migration relative to mock = 0.5; mean nuclei count = 6764; activity call = active
LYPLA2 #3: migration relative to mock = 0.19; mean nuclei count = 6312; activity call = active
LYPLA2 #4: migration relative to mock = 0.76; mean nuclei count = 6150; activity call = inactive
PPP1R35 #1: migration relative to mock = 1.2; mean nuclei count = 5975; activity call = inactive
PPP1R35 #2: migration relative to mock = 1.04; mean nuclei count = 4286; activity call = inactive
PPP1R35 #3: migration relative to mock = 0.7; mean nuclei count = 4909; activity call = inactive
PPP1R35 #4: migration relative to mock = 0.99; mean nuclei count = 5599; activity call = inactive
PCDHGA6 #1: migration relative to mock = 0.66; mean nuclei count = 6822; activity call = inactive
PCDHGA6 #2: migration relative to mock = 0.99; mean nuclei count = 6963; activity call = inactive
PCDHGA6 #3: migration relative to mock = 0.8; mean nuclei count = 6057; activity call = inactive
PCDHGA6 #4: migration relative to mock = 0.55; mean nuclei count = 5189; activity call = active
KLK5 #1: migration relative to mock = 0.27; mean nuclei count = 5878; activity call = active
KLK5 #2: migration relative to mock = 0.78; mean nuclei count = 7461; activity call = inactive
KLK5 #3: migration relative to mock = 0.66; mean nuclei count = 6240; activity call = inactive
KLK5 #4: migration relative to mock = -0.4; mean nuclei count = 2144; activity call = inactive
NFKBIZ #1: migration relative to mock = 0.62; mean nuclei count = 6604; activity call = inactive
NFKBIZ #2: migration relative to mock = 0.54; mean nuclei count = 5150; activity call = active
NFKBIZ #3: migration relative to mock = 0.47; mean nuclei count = 5810; activity call = active
NFKBIZ #4: migration relative to mock = 0.87; mean nuclei count = 5829; activity call = inactive
ZNF672 #1: migration relative to mock = 0.74; mean nuclei count = 5925; activity call = inactive
ZNF672 #2: migration relative to mock = 1.02; mean nuclei count = 6314; activity call = inactive
ZNF672 #3: migration relative to mock = -0.48; mean nuclei count = 2697; activity call = inactive
ZNF672 #4: migration relative to mock = -0.02; mean nuclei count = 3646; activity call = active
FBXO4 #1: migration relative to mock = 0.36; mean nuclei count = 3504; activity call = active
FBXO4 #2: migration relative to mock = 0.8; mean nuclei count = 5428; activity call = inactive
FBXO4 #3: migration relative to mock = 0.8; mean nuclei count = 5392; activity call = inactive
FBXO4 #4: migration relative to mock = -1.07; mean nuclei count = 3998; activity call = active
DHX16 #1: migration relative to mock = 0.64; mean nuclei count = 5483; activity call = inactive
DHX16 #2: migration relative to mock = 0.9; mean nuclei count = 5590; activity call = inactive
DHX16 #3: migration relative to mock = 0.67; mean nuclei count = 5684; activity call = inactive
DHX16 #4: migration relative to mock = 0.72; mean nuclei count = 6068; activity call = inactive

4 of these entries in another layout.
| gene | reagent | migration relative to mock | mean nuclei count | activity call |
| --- | --- | --- | --- | --- |
| NFKBIZ | 1 | 0.62 | 6604 | inactive |
| NFKBIZ | 2 | 0.54 | 5150 | active |
| NFKBIZ | 3 | 0.47 | 5810 | active |
| NFKBIZ | 4 | 0.87 | 5829 | inactive |
